The target in the assay is MYC-tagged FTL wild type, P02792. Put plainly: co-IP; HeLa-FTH1 KO cells; anti-MYC IP of MYC-FTH1/FTL, immunoblot; 50 mM Tris-HCl pH 7.5, 150 mM NaCl, 0.5% Nonidet P40, 1 mM DTT; quantified relative to FTH1-WT, normalized to immunoprecipitated FTH1/FTL and NCOA4 input. To be noted: remark: other sources report otherwise. A general note: Immunoblotting shows a protein as a band on a membrane.

No constants are given. Whether binding was seen depends on the method and setting. Binding seen in cells or lysates may run through a third protein. Sequences can lack the tags named with a protein.

B1: C-terminally HA-FLAG-tagged NCOA4, Q13772 1-614 (natural protein)
chain: MNTFQDQSGSSSNREPLLRCSDARRDLELAIGGVLRAEQQIKDNLREVKAQIHSCISRHLECLRSREVWLYEQVDLIYQLKEETLQQQAQQLYSLLGQFNCLTHQLECTQNKDLANQVSVCLERLGSLTLKPEDSTVLLFEADTITLRQTITTFGSLKTIQIPEHLMAHASSANIGPFLEKRGCISMPEQKSASGIVAVPFSEWLLGSKPASGYQAPYIPSTDPQDWLTQKQTLENSQTSSRACNFFNNVGGNLKGLENWLLKSEKSSYQKCNSHSTTSSFSIEMEKVGDQELPDQDEMDLSDWLVTPQESHKLRKPENGSRETSEKFKLLFQSYNVNDWLVKTDSCTNCQGNQPKGVEIENLGNLKCLNDHLEAKKPLSTPSMVTEDWLVQNHQDPCKVEEVCRANEPCTSFAECVCDENCEKEALYKWLLKKEGKDKNGMPVEPKPEPEKHKDSLNMWLCPRKEVIEQTKAPKAMTPSRIADSFQVIKNSPLSEWLIRPPYKEGSPKEVPGTEDRAGKQKFKSPMNTSWCSFNTADWVLPGKKMGNLSQLSSGEDKWLLRKKAQEVLLNSPLQEEHNFPPDHYGLPAVCDLFACMQLKVDKEKWLYRTPLQM
On to B1, for which the binding result is given as “no binding”.

Source of the values: article PMC11076521.
